Experimental findings from publication PMC2997501, “Different Residues on the Surface of the Methanothermobacter thermautotrophicus MCM Helicase Interact with Single- and Double-Stranded DNA” (Archaea, 2010) are described below.

What all share (assay): filter binding
The target of data set [1] is T1, MCM G211A (Methanothermobacter thermautotrophicus) (UniProt O27798).
T1 sequence (looked up): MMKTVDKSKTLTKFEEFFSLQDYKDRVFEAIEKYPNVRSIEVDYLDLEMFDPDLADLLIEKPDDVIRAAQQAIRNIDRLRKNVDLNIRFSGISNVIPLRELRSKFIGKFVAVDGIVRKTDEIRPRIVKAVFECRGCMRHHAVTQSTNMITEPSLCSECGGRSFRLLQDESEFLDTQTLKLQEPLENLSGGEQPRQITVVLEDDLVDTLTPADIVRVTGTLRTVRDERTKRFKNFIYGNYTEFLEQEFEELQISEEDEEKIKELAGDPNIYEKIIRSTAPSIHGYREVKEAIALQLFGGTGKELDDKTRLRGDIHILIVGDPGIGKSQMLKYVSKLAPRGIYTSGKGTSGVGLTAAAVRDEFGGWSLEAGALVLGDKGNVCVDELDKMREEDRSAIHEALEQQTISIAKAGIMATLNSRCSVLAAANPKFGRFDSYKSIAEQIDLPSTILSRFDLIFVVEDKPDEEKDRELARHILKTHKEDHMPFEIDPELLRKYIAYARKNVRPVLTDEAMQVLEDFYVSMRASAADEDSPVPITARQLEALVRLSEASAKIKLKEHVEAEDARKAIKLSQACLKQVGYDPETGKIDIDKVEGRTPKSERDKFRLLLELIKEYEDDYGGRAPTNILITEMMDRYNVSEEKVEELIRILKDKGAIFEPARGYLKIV
The settings on record: 1 mM ATP, 10 mM Mg2+; 25 mM Hepes-NaOH pH 7.5, 2 mM DTT, 10 mM MgCl2, 100 ug/ml BSA, 50 fmol 32P-DNA in 20 ul, 10/30/90 nM MCM monomer (25 nM for the ATP test), 60 C, 10 min; recombinant protein; residues 1-666; protein details: C-terminal His6; label: 32P (T4 PNK, 5' end); single-stranded DNA.

The target of data set [2] is T2, MCM V214A (Methanothermobacter thermautotrophicus) (UniProt O27798).
T2 sequence (looked up): T1 sequence (looked up) with A211G, V214A
The settings on record: 1 mM ATP, 10 mM Mg2+; 25 mM Hepes-NaOH pH 7.5, 2 mM DTT, 10 mM MgCl2, 100 ug/ml BSA, 50 fmol 32P-DNA in 20 ul, 10/30/90 nM MCM monomer (25 nM for the ATP test), 60 C, 10 min; recombinant protein; residues 1-666; protein details: C-terminal His6; label: 32P (T4 PNK, 5' end); single-stranded DNA.

Data set [3] has as its target T3, MCM P210G (Methanothermobacter thermautotrophicus) (UniProt O27798).
T3 sequence (looked up): T1 sequence (looked up) with P210G, A211G
The settings on record: 1 mM ATP, 10 mM Mg2+; 25 mM Hepes-NaOH pH 7.5, 2 mM DTT, 10 mM MgCl2, 100 ug/ml BSA, 50 fmol 32P-DNA in 20 ul, 10/30/90 nM MCM monomer (25 nM for the ATP test), 60 C, 10 min; recombinant protein; residues 1-666; protein details: C-terminal His6; label: 32P (T4 PNK, 5' end); single-stranded DNA.

Data set [4] deals with T4, MCM D212N (Methanothermobacter thermautotrophicus) (UniProt O27798).
T4 sequence (looked up): T1 sequence (looked up) with A211G, D212N
The settings on record: 10 mM Mg2+, 25 mM Hepes-NaOH pH 7.5, 2 mM DTT, 10 mM MgCl2, 100 ug/ml BSA, 50 fmol 32P-DNA in 20 ul, 10/30/90 nM MCM monomer (25 nM for the ATP test), 60 C, 10 min, recombinant protein, residues 1-666, protein details: C-terminal His6, label: 32P (T4 PNK, 5' end), single-stranded DNA.

Positions count from the first letter of the chain named. Construct, isoform or probe ends are uncertain for at least one entry. For some assays here: The comparison behind a weaker result is the experiment's own reference, which may not be listed here. Where a protein sequence is shown, tags need not be part of it. At least one verdict was read from the data and is not stated in words by the source.

For “GCAGATAACAGTTGTCCTGGAGAACGACCTGGTTGACACCCTCACACCC [49-mer ssDNA]”, the binding result in data set [1] was “binds”; in data set [2] it was “binds”; in data set [3], “binds”; in data set [4] (1 mM ATP), “binds”; in data set [4] (no ATP), “binds more weakly”.
